For at least one compound, name, drawing or mass did not settle the structure.
Experiments:
Type in all cases: in vivo, mouse
[1] = test system: Balb/c mice with atopic dermatitis (MC903 applied to the auricle); experiment: Auricular swelling in MC903-induced atopic dermatitis mice; conditions: for auricular skin swelling: male Balb/c, MC903 on right auricle, 5% norathyriol aqueous solution, betamethasone ointment or delgocitinib ointment applied to auricle for 7 days, vs vehicle group; for swelling and redness of auricular skin (photograph): right auricle at day 7, topical 5% norathyriol aqueous, betamethasone ointment, delgocitinib ointment
Procedure: MC903 at 2 nM was applied to the right auricle of a 6-week-old male Balb/c (Japan SLC Inc.). Starting 8 h later, 5% norathyriol aqueous solution (1 mL of ethanol containing […] of norathyriol), betamethasone ointment, and delgocitinib ointment were applied to the auricle for 7 days. The measurement of auricular skin swelling was calculated by calipers. The day on which the first application of the compound was made was defined as day 0. Betamethasone and delgocitinib are currently in clinical use in atopic dermatitis and were used as control drugs in this example.
Those without MC903 or norathyriol are called the control group, those with MC903 are called the vehicle group, those with 5% norathyriol aqueous are called the 5% norathyriol-applied group, those with betamethasone ointment are called the betamethasone-applied group, and those with delgocitinib ointment is referred to as the delgocitinib-applied group.
Solid white circles indicate the control group (labeled “control”). Solid black squares indicate the vehicle group (labeled “vehicle”), dotted black diamonds indicate the 5% norathyriol aqueous application group (labeled “MC903+5% norathyriol”), dashed black crosses indicate the betamethasone application group (labeled “MC903+betamethasone ointment”), and single-dotted black dots indicate the delgocitinib application group (labeled “MC903+delgocitinib ointment”).

[2] = test system: Balb/c mice with ovalbumin-induced allergic rhinitis; experiment: Nose scratching behavior, ovalbumin-induced allergic rhinitis mice; conditions: OVA allergic rhinitis; oral daily 8 days from day 20, 10 mg/kg (dexamethasone 2 mg/kg); measured day 27; vs vehicle group
Procedure: (§1) A 0.2 mL dose of 50 μg ovalbumin (OVA) and 2 mg Alum mixture was administered to 6-week-old female Balb/c mice (Japan SLC Inc.) (day 0 of the example). Alum was used as an adjuvant. Seven days later and 14 days later, the Balb/c mice were immunized again with 0.2 mL injections of the above mixture. Starting on day 20, mice were orally treated with 10 mg/kg of norathyriol, 10 mg/kg of mangiferin 8a, 10 mg/kg of tofacitinib (JAK inhibitor), 2 mg/kg of dexamethasone (steroid) and 10 mg/kg of olopatadine (antihistamine) daily for 8 consecutive days. Starting on day 21, 400 μg OVA was administered intranasally, and nose-scratching behavior was measured on day 27. Note that tofacitinib, dexamethasone, and olopatadine are currently in clinical use in allergic rhinitis and were used as control drugs in this example.
(§2) The group that was just immunized with OVA is called the subject group, the one that received norathyriol is called the norathyriol group, the one that received mangiferin 8a is called the mangiferin 8a group, the one that received tofacitinib is called the tofacitinib group, the one that received dexamethasone is called the dexamethasone group, and the one that received olopatadine is called the olopatadine group. Each group consisted of five animals.

[3] = test system: Balb/c mice with ovalbumin-induced allergic rhinitis; experiment: Sneezing, ovalbumin-induced allergic rhinitis mice; conditions: OVA allergic rhinitis; oral daily 8 days from day 20, 10 mg/kg (dexamethasone 2 mg/kg); measured day 27; vs vehicle group
Procedure: as §1, with “sneezing” for “nose-scratching behavior”
as §2

[4] = test system: Balb/c mice with ovalbumin-induced bronchial asthma; experiment: Cough, ovalbumin-induced bronchial asthma mice; conditions: OVA bronchial asthma; oral daily 8 days from day 20, 10 mg/kg (dexamethasone 2 mg/kg); measured day 27; vs vehicle group
Procedure: as §1, with “cough” for “nose-scratching behavior”
as §2

[5] = test system: Balb/c mice with ovalbumin-induced food allergy; experiment: Frequency of diarrhea, ovalbumin-induced food allergy mice; conditions: OVA food allergy; oral daily 14 days from day 14, 10 mg/kg (dexamethasone 2 mg/kg); measured day 28; vs vehicle group
Procedure: A 0.2 mL dose of 10 μg ovalbumin (OVA) and 1 mg Alum mixture was administered to 6-week-old female Balb/c mice (Japan SLC Inc.) (day 0 of the example). Alum was used as an adjuvant. Seven days later, the Balb/c mice were immunized again with a 0.2 mL injection of the above mixture. Starting on day 14, mice were orally treated with 10 mg/kg of norathyriol, 10 mg/kg of mangiferin 8a, 10 mg/kg of tofacitinib (JAK inhibitor), 2 mg/kg of dexamethasone (steroid) and 10 mg/kg of olopatadine (antihistamine) daily for 14 consecutive days. Starting on day 14, 10 mg OVA was administered orally every other day […], and the frequency of diarrhea was measured after the final administration on day 28. Note that tofacitinib, dexamethasone, and olopatadine are currently in clinical use in food allergy and were used as control drugs in this example.
as §2

[6] = test system: Balb/c mice with cedar pollinosis; experiment: Nose scratching behavior, cedar pollinosis model mice; conditions: oral daily 8 days from day 20, 10 mg/kg (dexamethasone 2 mg/kg), measured day 27, vs vehicle group
Procedure: as §1, with “of 100” for “of 50”, “μg cedar pollen” for “μg ovalbumin (OVA)”, “and 1” for “and 2”, “21, 500” for “21, 400”, “μg cedar pollen” for “μg OVA”, “in cedar pollinosis” for “in allergic rhinitis”
as §2, with “cedar pollen” for “OVA”

[7] = test system: Balb/c mice with cedar pollinosis; experiment: Sneezing, cedar pollinosis model mice; conditions: oral daily 8 days from day 20, 10 mg/kg (dexamethasone 2 mg/kg), measured day 27, vs vehicle group
Procedure: A 0.2 mL dose of 100 μg cedar pollen and 1 mg Alum mixture was administered to 6-week-old female Balb/c mice (Japan SLC Inc.) (day 0 of the example). Alum was used as an adjuvant. Seven days later and 14 days later, the Balb/c mice were immunized again with 0.2 mL injections of the above mixture. Starting on day 20, mice were orally treated with 10 mg/kg of norathyriol, 10 mg/kg of mangiferin 8a, 10 mg/kg of tofacitinib (JAK inhibitor), 2 mg/kg of dexamethasone (steroid) and 10 mg/kg of olopatadine (antihistamine) daily for 8 consecutive days. Starting on day 21, 500 μg cedar pollen was administered intranasally, and sneezing was measured on day 27. Note that tofacitinib, dexamethasone, and olopatadine are currently in clinical use in cedar pollinosis and were used as control drugs in this example.
as §2, with “cedar pollen” for “OVA”

SMILES | auricular skin swelling [1] | swelling and redness of auricular skin (photograph) [1] | number of nose scratches [2] | number of sneezing [3] | number of coughs [4] | frequency of diarrhea [5] | number of nose scratches [6] | number of sneezing [7]
C[C@H]1C[C@H]2[C@@H]3CCC4=CC(=O)C=C[C@]4(C)[C@@]3(F)[C@@H](O)C[C@]2(C)[C@@]1(O)C(=O)CO [betamethasone] | swelling of the auricle was almost completely absent | showed no swelling or redness | – | – | – | – | – | –
C[C@H]1CN(C(=O)CC#N)[C@]12CCN(c1ncnc3[nH]ccc13)C2 [delgocitinib] | swelling was significantly reduced | showed some redness, but not as much as in the target group | – | – | – | – | – | –
C[C@@H]1C[C@H]2[C@@H]3CCC4=CC(=O)C=C[C@]4(C)[C@@]3(F)[C@@H](O)C[C@]2(C)[C@@]1(O)C(=O)CO [dexamethasone] | – | – | significantly decreased the number of nose scratches | significantly decreased the number of sneezing | significantly decreased the number of coughs | showed a marked decrease in the frequency of diarrhea | significantly decreased the number of nose scratches | significantly decreased the number of sneezing

From patent US20260007634A1, “PHARMACEUTICAL COMPOSITIONS FOR THE TREATMENT OF ALLERGIC DISEASES” (KINKI UNIVERSITY, priority 2022, published 2026)
